Source: the supplement of paper PMC13380429

Experiments:
Conditions in all cases: 72 h
[1] = test system: Caco-2; test: cell viability relative to DMSO; higher = less toxic
[2] = test system: HepG2; test: as above
[3] = test system: U2OS; test: as above
[4] = test system: Vero E6; test: as above
[5] = test system: Caco-2; test: relative viability EC50 (midpoint between 100% and the lowest measured viability); higher = less toxic
[6] = test system: HepG2; test: as above
[7] = test system: U2OS; test: as above
[8] = test system: Vero E6; test: as above
[9] = test system: Caco-2; test: drug sensitivity score (DSS) for viability; higher = more toxic; extreme values may be limits of the assay
[10] = test system: HepG2; test: as above
[11] = test system: U2OS; test: as above
[12] = test system: Vero E6; test: as above

O=C(O)C1=C[C@@H](O)[C@@H](O)[C@H](O)C1 [shikimic-acid] was tested. Which cell viability ([1]; 1 nM) did it give?
Its cell viability is 90.7%.

And the cell viability ([1]; 10 nM)?
The cell viability was 96.7%.

And the cell viability ([1]; 100 nM)?
Its cell viability is 102%.

What about the cell viability ([1]; 1000 nM) of the same molecule?
The cell viability was 94.4%.

And the cell viability ([1]; 10000 nM)?
Its cell viability is 97.2%.

And the cell viability ([2]; 1 nM)?
The cell viability was 100%.

What about the cell viability ([2]; 10 nM) of the same molecule?
The cell viability was 95.5%.

And the cell viability ([2]; 100 nM)?
The cell viability was 103%.

What about the cell viability ([2]; 1000 nM) of the same molecule?
Its cell viability is 92.8%.

What about the cell viability ([2]; 10000 nM) of the same molecule?
Its cell viability is 109%.

What about the cell viability ([3]; 1 nM) of the same molecule?
The cell viability was 95.6%.

And the cell viability ([3]; 10 nM)?
The cell viability was 100%.

And the cell viability ([3]; 100 nM)?
Its cell viability is 95.1%.

And the cell viability ([3]; 1000 nM)?
The cell viability was 98.5%.

What about the cell viability ([3]; 10000 nM) of the same molecule?
The cell viability was 94.7%.

And the cell viability ([4]; 1 nM)?
The cell viability was 97.9%.

And the cell viability ([4]; 10 nM)?
The cell viability was 94.4%.

And the cell viability ([4]; 100 nM)?
Its cell viability is 101%.

What about the cell viability ([4]; 1000 nM) of the same molecule?
Its cell viability is 95.8%.

What about the cell viability ([4]; 10000 nM) of the same molecule?
The cell viability was 106%.

What about the “relative viability EC50” value [5] of the same molecule?
The value was > 10 µM.

What about the “relative viability EC50” value [6] of the same molecule?
The value was > 10 µM.

What about the “relative viability EC50” value [7] of the same molecule?
Its value is > 10 µM.

And the “relative viability EC50” value [8]?
Its value is > 10 µM.

And the drug sensitivity score [9]?
The drug sensitivity score was 0.

And the drug sensitivity score [10]?
Its drug sensitivity score is 0.

And the drug sensitivity score [11]?
The drug sensitivity score was 0.

What about the drug sensitivity score [12] of the same molecule?
Its drug sensitivity score is 0.
